For this experiment, the system named is Escherichia coli. The experiment can be described thus: Broth Macro Dilution Test, MIC and MBC. It is filed as cell-based. Particulars: resistant to Ciprofloxacin, antibiotic alone, read-out: minimum inhibitory concentration (MIC). From the text: This was done by estimation of the Minimum Inhibitory Concentration (MIC) and Minimum Bactericidal Concentration (MBC) on the selected isolates by a Broth Macro Dilution Test.
While conducting these tests, the guidelines given by the National committee of Clinical Laboratory Standards 1995 protocols were employed. Cation Supplemented Mueller Hinton Broth was used as medium for all organisms excepting for β haemolytic streptococci for which, Todd Hewit's Broth was used as medium.
The following concentrations of antibiotics were tested to determine MIC and MBC.
A minimum inhibitory concentration is the lowest level of antibiotic needed to cause an inhibition to bacterial growth in culture medium whereas, the minimum bactericidal concentration is the lowest concentration of antibiotic to achieve a 100% killing of bacteria. Thus, these two values are the practical indices of intensity of bacterial resistance to a given antibiotic. On the other hand, a break-even point of any antibiotic indicates the attainable blood levels after an administration of full dose, in human/animal body. Thus, this point indicates the practical dosage of administering any given antibiotic effectively and beyond this point, even if an antibiotic is found to act effectively in experimental situation—such dose cannot be administered in a clinical situation.

Converted amounts (≈) assume the structure as drawn. Where two headings read alike, the source gives them in different places.

As to `O=C(O)c1cn(C2CC2)c2cc(N3CCNCC3)c(F)cc2c1=O` [Ciprofloxacin], the MIC stood at 8 µg/mL (≈ 24.1 µM) (Example 1: isolate from wound infection) and 32 µg/mL (≈ 96.6 µM) (Example 2: isolate from endotracheal catheter tip culture).

The values above are taken from patent US6599541B1, “Composition for treatment of drug resistant bacterial infections and a method of treating drug resistant bacterial infections” (priority 1999, dated 2003).
